Data on four molecules can be found in patent US20190016809A1 (MONASH UNIVERSITY, published 2019).

By UniProt entry, the sequences of proteins in these tests, tags left out. Residues count along the entry.
UniProt P25025, residues 1-48: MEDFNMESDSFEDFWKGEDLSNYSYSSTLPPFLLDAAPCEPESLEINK

The target of experiment [1] is biotinylated peptide corresponding to the N-terminal region of human CXCR2 (human) (UniProt P25025). The experiment in a line: ELISA on biotinylated peptides. On the technique in general: ELISA stands for enzyme-linked immunosorbent assay.
Experiment [2] has as its target human CXCR2 (human) (UniProt P25025). The experiment in a line: flow cytometry, 1 ug purified antibody on transfected cells.
The target is the same in experiment [3]. The experiment in a line: flow cytometry on CXCR2 expressing cells.
The target is the same in experiment [4]. The experiment in a line: flow cytometry dose response on human CXCR2 L1.2 transfected cells. A general note: A flow cytometer gives signals particle by particle.

Where a chain is given by its changes, count along the chain named. No constants are given. Whether binding was seen depends on the method and setting. Some binding calls cover weakened binding; strength is not graded here.

B1: m3H9 (antibody, mouse IgG3, V domains shown)
VH: QVQLQQSGPELVKPGASVKISCKASGYAFSNSWMNWVKQRPGKGLEWIGRIYPGDGNINYYGKFKDKATLTADKSSNTAYMQLSSLTSEDSAVYFCARSFLYVDFDYWGQGTTLTVSS
VL: VIVMTQTPLSLPVSLGDQASISCRSSQSLVHSNGNTYLQWYLQKPGQSPKLLIYKVSNRFSGVPDRFSGSGSGTDFTLKISRVEAEDLGVYFCSQGTHVPYTFGGGTKLEIKR
notes: also called mouse 3H9; purified mouse 3H9 mAb
With B1, the binding entry in experiment [1] is on record as “binds”.

B2: h3H9 (antibody, V domains shown)
VH: QVQLVQSGAEVKKPGASVKVSCKASGYAFSNSWMNWVRQAPGQRLEWIGRIYPGDGNINYYGKFKDKATLTADKSANTAYMELSSLRSEDTAVYFCARSFLYVDFDYWGQGTTLTVSS
VL: B1 VL with V1D, T7S, S14T, L15P, D17E, Q18P, K50Q, L88V, G105Q
In the case of B2, the binding result in experiment [2], in experiment [3] and in experiment [4] was “binds” each time.

B3: mCM2 (antibody, V domains shown)
VH: B1 VH with D104Y
VL: B1 VL with V1D, I2A, V56L, S72A, G96S
notes: Mouse hybridoma monoclonal antibody
Take B3: the binding result in experiment [1] was “binds”.

B4: m6G7 (antibody, V domains shown)
VH: B1 VH
VL: B1 VL with V1D, I2V, T7A, S28T
notes: as for B3
B4: in experiment [1], the binding entry is “binds”.
